Consider four substances from paper PMC12049415.

Sequences of proteins named here, by UniProt entry; tags and fusion partners are left off.
UniProt Q86VY4: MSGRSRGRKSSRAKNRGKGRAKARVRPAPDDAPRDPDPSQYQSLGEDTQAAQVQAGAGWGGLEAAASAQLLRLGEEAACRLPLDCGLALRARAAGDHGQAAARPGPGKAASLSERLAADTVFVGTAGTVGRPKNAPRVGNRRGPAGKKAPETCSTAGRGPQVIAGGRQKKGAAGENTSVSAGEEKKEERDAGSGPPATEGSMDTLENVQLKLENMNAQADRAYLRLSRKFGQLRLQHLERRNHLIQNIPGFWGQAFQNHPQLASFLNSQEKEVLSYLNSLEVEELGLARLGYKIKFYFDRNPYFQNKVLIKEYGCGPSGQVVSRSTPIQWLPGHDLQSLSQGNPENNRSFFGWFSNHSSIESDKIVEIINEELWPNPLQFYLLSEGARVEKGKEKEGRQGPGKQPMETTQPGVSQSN

These are yes or no findings as the source states them, for the method shown. In cells and extracts the contact can be indirect. Some binding calls cover weakened binding; strength is not graded here.

Assay [1] addresses G3BP stress granule assembly factor 1 (G3BP1), endogenous (human (endogenous in SK-N-SH and SH-SY5Y)) (UniProt Q13283). The experiment in a line: co-IP; nuclear proteins isolated from SK-N-SH cells, with and without TSPYL5 overexpression.
For assay [2] the target is unchanged. The experiment in a line: co-IP; two-step Co-IP in SK-N-SH cells.
For assay [3] the target is unchanged. The experiment in a line: co-IP; endogenous proteins, lysates of SK-N-SH (and SH-SY5Y), antibody overnight at 4 °C, Protein A+G agarose, western blot; also in cells with G3BP1 or TSPYL5 overexpression and after arsenate. In general terms: A western blot detects proteins with antibodies after separation by electrophoresis.
Assay [4] has as its target TSPY-like 5 (TSPYL5), endogenous (human (endogenous in SK-N-SH and SH-SY5Y)) (UniProt Q86VY4). The description is as above.
Assay [5] addresses TSPYL5, exogenous, tagged (pcDNA3.1(+)) (human) (UniProt Q86VY4). The experiment in a line: co-IP; exogenous tagged TSPYL5 and G3BP1 in SK-N-SH cells, IP with anti-HA or anti-MYC antibodies, western blot.
In assay [6] the target is RAN binding protein 2 (RanBP2), endogenous (human (endogenous in SK-N-SH)) (UniProt P49792). Kind of assay: co-IP; nuclear proteins isolated from SK-N-SH cells, with and without TSPYL5 overexpression.
Assay [7] shares this target. Kind of assay: co-IP; two-step Co-IP in SK-N-SH cells.
Assay [8] has the same target. Kind of assay: co-IP; endogenous proteins, lysates of SK-N-SH (and SH-SY5Y), antibody overnight at 4 °C, Protein A+G agarose, western blot; also in cells with G3BP1 or TSPYL5 overexpression and after arsenate.
Assay [9] concerns the target G3BP stress granule assembly factor 1 (G3BP1), endogenous (human (endogenous in SK-N-SH and SH-SY5Y)) (UniProt Q13283). The experiment in a line: co-IP; p53 with G3BP1 in the presence of TSPYL5 (Supplementary Fig. 10a, b; legend and set-up not shown).

With “RAN binding protein 2 (RanBP2), endogenous (from UniProt P49792 1-3224)”, the binding result in [1], in assay [2] and in [3] was “binds” in each case.

As to “G3BP stress granule assembly factor 1 (G3BP1), endogenous (from UniProt Q13283 1-466)”, the binding entry in assay [4] is on record as “binds”.

As to “G3BP1, exogenous, tagged (pcDNA3.1(+)) (from UniProt Q13283 1-466)”, in assay [5], the binding result is listed as “binds”.

“p53, endogenous (wild-type) (from UniProt P04637 1-393)”: the binding result in assay [6], in [2], in [7], in assay [8] and in assay [9] was “binds” each time.
